Results published in US20260176290A1, “INHIBITORS OF KRAS(G12D)” (Ranok Therapeutics (Hangzhou) Co. Ltd., priority 2022, published 2026).
The match of structure and compound is tentative.

Amino acid sequences for entries named in this document (tags omitted). Residues count along the entry.
UniProt P01116, 1-188 isoform 2 G12D: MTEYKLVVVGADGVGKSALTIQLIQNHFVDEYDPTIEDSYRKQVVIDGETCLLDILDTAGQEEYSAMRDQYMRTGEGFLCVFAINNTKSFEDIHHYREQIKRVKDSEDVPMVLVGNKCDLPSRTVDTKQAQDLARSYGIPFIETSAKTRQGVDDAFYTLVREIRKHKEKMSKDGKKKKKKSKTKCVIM

What was measured:
[1] = tested on: SW1990 pancreatic adenocarcinoma cells [homozygous G12D]; experiment: Cancer cell line proliferation (CellTiter-Glo), SW1990; conditions: read-out: CTG(IC50), ABS-72 H(nM) SW1990
[2] = tested on: ASPC1 pancreatic adenocarcinoma cells [homozygous G12D]; experiment: Cancer cell line proliferation (CellTiter-Glo), ASPC1; conditions: read-out: CTG(IC50), ABS-72 H(nM) ASPC-1, ASPC-1 cells
[3] = tested on: A-427 lung carcinoma cells [heterozygous G12D]; experiment: Cancer cell line proliferation (CellTiter-Glo), A-427; conditions: read-out: CTG(IC50), ABS-72 H(nM) A427
[4] = tested on: AGS gastric carcinoma cells [heterozygous G12D]; experiment: Cancer cell line proliferation (CellTiter-Glo), AGS; conditions: read-out: CTG(IC50), ABS-72 H(nM) AGS
KRAS (G12D)/SOS1 = KRAS (G12D)/SOS1 (Homo sapiens, UniProt P01116, G12D); experiment: KRAS (G12D)/SOS1 homogeneous time-resolved fluorescence (HTRF) assay; assay type: binding; conditions: read-out: HTRF of KRAS^G12D-SOS1; absence of GTP, 4° C. for 3 hr

For `C#Cc1c(F)ccc2cc(O)cc(-c3ncc4c(N5CC6NC(C5)C5CC65)nc(OCC5(CN6CCC(F)CC6)CC5)nc4c3F)c12` (centres unmarked), which IC50 [1] is on record?
The IC50 was 100 to 1000 nM.

And the IC50 [2]?
The IC50 was 100 to 1000 nM.

What about the IC50 [3] of the same molecule?
The IC50 was 100 to 1000 nM.

And the IC50 [4]?
The IC50 was 100 to 1000 nM.

And the IC50 (KRAS (G12D)/SOS1)?
The IC50 was under 0.1 µM.
